No constants are given. Whether binding was seen depends on the method and setting. Some binding calls cover weakened binding; strength is not graded here.
Assays:
[1] = biological target: RAD16 peptide, H2N-…-COOH; assay: self-assembly into a macroscopic membrane in DMEM; phase-contrast microscopy and Congo Red staining
[2] = biological target: RAD16 peptide, H2N-…-COOH; assay: self-assembly into a macroscopic membrane in PBS; phase-contrast microscopy and Congo Red staining
[3] = biological target: RAD16 peptide, H2N-…-COOH; assay: membrane formation test

Measured: binding

B1: RAD16 peptide, H2N-…-COOH (peptide)
peptide: ARARADADARARADAD
binds: all assays above
